PubChem BioAssay AID1259254, NCATS – 2017
This is one part, drawn at random, of about 59,000 deposited reagents. Of all reagents, about 1,550 (2.6%) are marked active. 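G2 share is only a proxy for re-replication; each gene was hit by three separate siRNAs, and active genes were retested.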 Raw values are not corrected between plates. Reagents against one gene are numbered here. The record does not give: the amount of reagent.

Screen: 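Gene knock-downs that lead to re-replication, shown by excess G2 DNA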 (primary screen)
Cell system: human HCT116 colorectal cancer cells
Reagent: single siRNA against human genes
Timing: 3 days
Read-out: 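Imaged Hoechst DNA stain sorts each cell into a cycle phase by DNA amount; per plate, G2 fraction set to 0% for non-targeting and 100% for GMNN siRNA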
Direction: G2 robust z-score and G2 cells, % of GMNN control: higher = more G2 cells, more excess DNA replication; raw share of cells in G2: higher = larger share of cells with G2 DNA content
Active means: 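Active siRNAs have a G2 robust z of 5 or more median absolute deviations over the median, which in these data means about 38% or higher of GMNN control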

| Target gene | reagent no. | G2 robust z-score | G2 cells, % of GMNN control | raw share of cells in G2 (%) | Call |
| --- | --- | --- | --- | --- | --- |
| MRPS27 (mitochondrial ribosomal protein S27) | 1 | 1.61 | 14.3 | 10.6 | inactive |
| MRPS27 (mitochondrial ribosomal protein S27) | 2 | 0.167 | 4.14 | 5.85 | inactive |
| MRPS27 (mitochondrial ribosomal protein S27) | 3 | -0.0752 | 2.44 | 4.09 | inactive |
| ERLIN1 (ER lipid raft associated 1) | 1 | -0.89 | -3.29 | 3.69 | inactive |
| ERLIN1 (ER lipid raft associated 1) | 2 | 0.858 | 9 | 7.85 | inactive |
| ERLIN1 (ER lipid raft associated 1) | 3 | -0.275 | 1.03 | 3.56 | inactive |
| PPP2R5C (protein phosphatase 2 regulatory subunit B'gamma) | 1 | 0.29 | 5.01 | 6.42 | inactive |
| PPP2R5C (protein phosphatase 2 regulatory subunit B'gamma) | 2 | -0.92 | -3.5 | 3.25 | inactive |
| PPP2R5C (protein phosphatase 2 regulatory subunit B'gamma) | 3 | 3.94 | 30.7 | 12.7 | inactive |
| SERPINI1 (serpin family I member 1) | 1 | -0.729 | -2.16 | 4.09 | inactive |
| SERPINI1 (serpin family I member 1) | 2 | 1.11 | 10.8 | 7.54 | inactive |
| SERPINI1 (serpin family I member 1) | 3 | -0.914 | -3.47 | 2.45 | inactive |
| CEP43 (centrosomal protein 43) | 1 | -0.118 | 2.14 | 5.82 | inactive |
| CEP43 (centrosomal protein 43) | 2 | -0.682 | -1.83 | 3.38 | inactive |
| CEP43 (centrosomal protein 43) | 3 | -0.788 | -2.58 | 2.21 | inactive |
| GAS2L1 (growth arrest specific 2 like 1) | 1 | -0.787 | -2.57 | 3.98 | inactive |
| GAS2L1 (growth arrest specific 2 like 1) | 2 | 2.53 | 20.8 | 12.7 | inactive |
| GAS2L1 (growth arrest specific 2 like 1) | 3 | 0.0366 | 3.22 | 4.38 | inactive |
| CDC42EP2 (CDC42 effector protein 2) | 1 | -1.37 | -6.68 | 2.31 | inactive |
| CDC42EP2 (CDC42 effector protein 2) | 2 | -0.557 | -0.951 | 3.55 | inactive |
| CDC42EP2 (CDC42 effector protein 2) | 3 | 3.86 | 30.2 | 14.4 | inactive |
| SETMAR (SET and mariner transposase domain methyltransferase) | 1 | 0.734 | 8.13 | 6.65 | inactive |
| SETMAR (SET and mariner transposase domain methyltransferase) | 2 | 5.12 | 39 | 18.8 | active |
| SETMAR (SET and mariner transposase domain methyltransferase) | 3 | -0.165 | 1.81 | 5.17 | inactive |
| MELK (maternal embryonic leucine zipper kinase) | 1 | -0.888 | -3.28 | 4.52 | inactive |
| MELK (maternal embryonic leucine zipper kinase) | 2 | -1.16 | -5.18 | 3.67 | inactive |
| MELK (maternal embryonic leucine zipper kinase) | 3 | -0.0352 | 2.72 | 4.98 | inactive |
| FGF7P7 (fibroblast growth factor 7 pseudogene 7) | 1 | 0.0417 | 3.26 | 4.78 | inactive |
| FGF7P7 (fibroblast growth factor 7 pseudogene 7) | 2 | -0.855 | -3.05 | 1.8 | inactive |
| FGF7P7 (fibroblast growth factor 7 pseudogene 7) | 3 | -0.73 | -2.17 | 2.78 | inactive |
| CSRP1 (cysteine and glycine rich protein 1) | 1 | -0.25 | 1.21 | 5.43 | inactive |
| CSRP1 (cysteine and glycine rich protein 1) | 2 | 0.181 | 4.24 | 5.56 | inactive |
| CSRP1 (cysteine and glycine rich protein 1) | 3 | 1.83 | 15.9 | 10.6 | inactive |
| SNRNP27 (small nuclear ribonucleoprotein U4/U6.U5 subunit 27) | 1 | -1 | -4.1 | 3.38 | inactive |
| SNRNP27 (small nuclear ribonucleoprotein U4/U6.U5 subunit 27) | 2 | -0.118 | 2.14 | 5.02 | inactive |
| SNRNP27 (small nuclear ribonucleoprotein U4/U6.U5 subunit 27) | 3 | 0.881 | 9.17 | 6.6 | inactive |
| DPF1 (double PHD fingers 1) | 1 | -0.405 | 0.116 | 4.51 | inactive |
| DPF1 (double PHD fingers 1) | 2 | -0.0466 | 2.64 | 5.24 | inactive |
| DPF1 (double PHD fingers 1) | 3 | -0.885 | -3.26 | 4.22 | inactive |
| PFN1 (profilin 1) | 1 | -0.562 | -0.99 | 4.55 | inactive |
| PFN1 (profilin 1) | 2 | 2.04 | 17.3 | 11.1 | inactive |
| PFN1 (profilin 1) | 3 | 1.48 | 13.4 | 8.19 | inactive |
| XDH (xanthine dehydrogenase) | 1 | 2.47 | 20.4 | 14.2 | inactive |
| XDH (xanthine dehydrogenase) | 2 | 7.08 | 52.8 | 21.9 | active |
| XDH (xanthine dehydrogenase) | 3 | 2.48 | 20.4 | 11.9 | inactive |
| PLA2G12A (phospholipase A2 group XIIA) | 1 | -0.349 | 0.509 | 4.38 | inactive |
| PLA2G12A (phospholipase A2 group XIIA) | 2 | -0.787 | -2.57 | 4.36 | inactive |
| PLA2G12A (phospholipase A2 group XIIA) | 3 | -1.22 | -5.62 | 2.71 | inactive |

Looked up above.
Value of FGF7P7 (fibroblast growth factor 7 pseudogene 7) #3 under “G2 robust z-score”: -0.73
SNRNP27 (small nuclear ribonucleoprotein U4/U6.U5 subunit 27) #3, G2 cells, % of GMNN control → 9.17
For “Call”, SNRNP27 (small nuclear ribonucleoprotein U4/U6.U5 subunit 27) #2 is entered as inactive
Result of CDC42EP2 (CDC42 effector protein 2) #3 in “Call”: inactive
